Laboratory results from patent publication US8486892B2 (Novo Nordisk Health Care AG, priority 2008, dated 2013).

Experiment: general procedure: Fmoc solid-phase peptide synthesis; Fmoc protected Rink amide resin (Novabiochem) (peptide amides) or Wang resin (peptide acids); HBTU
Details: whole synthesis, scale of the general procedure 0.25 mmol; for final purity (method not given): ELS

Substance	final purity (method not given) [%]	final HPLC purity (214 nm) [%]
Propyloxycarbonyl-(4-amidino-Phe)-Glu-Asn-Cha-[HN—(CH2—CH2—O)2—(CH2)—C(═O)]5—NH2	98	
Propyloxycarbonyl-(4-amidinoPhe)-Glu-Asn-Cha-Arg-Arg-Arg-NH2		91
Propyloxycarbonyl-HomoArg-Glu-Asn-Cha-[HN—(CH2—CH2—O)2—(CH2)—C(═O)]5—NH2	100	
